The results in this text go back to US20250122301A1 (IBIO, published 2025).

The chains behind the UniProt entries cited, without tags or fusion partners. Where a name states a change or a piece, a line headed by the entry shows the natural chain unless it says otherwise. A line that says so, or that is headed by a name, gives the form on record, which may keep a tag or linker. Residues count along the entry.
UniProt P01589: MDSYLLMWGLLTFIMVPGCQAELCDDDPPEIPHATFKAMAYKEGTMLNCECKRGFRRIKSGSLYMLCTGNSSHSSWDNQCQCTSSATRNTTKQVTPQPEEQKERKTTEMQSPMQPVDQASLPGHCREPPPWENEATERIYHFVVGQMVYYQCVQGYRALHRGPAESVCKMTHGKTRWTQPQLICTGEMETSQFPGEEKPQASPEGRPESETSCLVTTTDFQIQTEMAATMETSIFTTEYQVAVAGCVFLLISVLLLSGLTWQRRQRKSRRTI
CD25 on CD25+ cells (SUDHL-1, HEK IL-2 reporter cells, primary human regulatory T cells): residues 22-272 of P01589
full-length CD25 (human CD25, recombinant protein used on biosensors): residues 22-213 of P01589
recombinant cynomolgus monkey (cyno) CD25 (H6WS54, form named): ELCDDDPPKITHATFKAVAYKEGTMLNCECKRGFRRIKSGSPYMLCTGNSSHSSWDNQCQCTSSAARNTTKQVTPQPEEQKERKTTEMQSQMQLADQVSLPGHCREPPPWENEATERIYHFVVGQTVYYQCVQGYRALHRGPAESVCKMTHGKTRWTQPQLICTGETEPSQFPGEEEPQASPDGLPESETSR

Test [1] concerns the target full-length CD25 (human CD25, recombinant protein used on biosensors) (human) (UniProt P01589). Put plainly: BLI (Octet RED384): antibody on AR2G sensor, 300 nM full-length CD25, 1:1 fit. On the technique in general: Biolayer interferometry detects binding as a change in optical thickness at a sensor tip.
For test [2], the target named is CD25 on CD25+ cells (SUDHL-1, HEK IL-2 reporter cells, primary human regulatory T cells) (human) (UniProt P01589). Put plainly: flow cytometry, SUDHL-1 and HEK IL-2 reporter cells.
Test [3] has the same target. As to the kind of experiment: flow cytometry, 10 ug/mL antibody, HEK IL-2 reporter cells (CD25+).
Test [4] shares this target. Put plainly: flow cytometry, 10 ug/mL antibody, SUDHL-1 cells (CD25+). A general note: Flow cytometry measures light scatter and fluorescence of single cells or particles in a stream.
Test [5] has as its target recombinant cynomolgus monkey (cyno) CD25 (cynomolgus monkey) (UniProt H6WS54). Put plainly: ELISA on coated recombinant cyno CD25, OD450. A general note: In an ELISA, binding on a coated surface is turned into a signal by an enzyme label.

No constants are given. Whether binding was seen depends on the method and setting. Some entries that bind do so weakly or less than the wild type.

B1: D5 (human IgG1 reformatted) (antibody, V domains shown)
VH: QVQLQQSGAELVRPGTSVKISCKASGYTFTNYWLGWVKQRPGHGLEWIGDIYPGGGYTNYNEKFKGKATLTADTSSSTAYMQLSSLTSEDSAVYFCARVTPASWGQGTSLTVSS
VL: DIVMTQSQKFMSTSVGDRVSVTCKASQNVGTNVAWYQQKPGQSPKALIYSASYRYSGVPDRFTGSGSGTDFTLTISNVQSEDLAEYFCQQYNSYPYTFGGGTKLEMK
As to B1, the binding entry in test [1], in test [2], in test [3] and in test [4] was “binds” each time.

B2: AH04524 (human IgG1 reformatted) (antibody, V domains shown)
VH: QIQLQQSGAELVRPGTSVKMSCKAAGYTFTNYWIGWVKQRPGHGLEWIGDIHPGGDYSNYNEKFKGKATLTADTSSSTAYMSLSSLTSEDSAIYYCTSRNFAYWGQGTLVTVSA
VL: DIVMTQSQKFMSTSVGDRVSVTCKASQNVGTNVAWYQQKPGQSPKALIYSASYRYSGVPDRFTGSGSGTDFTLTISNVQSEDLAEYFCQQYNSYPYTFGGGTKLEIK
notes: also called AH4524
Turning to B2, the binding entry in test [1] is reported as “binds”.

B3: AH04509 (human IgG1 reformatted) (antibody, V domains shown)
VH: QIQLQQSGAELVRPGTSVKMSCKAAGYTFTNYWIGWVKQRPGHGLEWIGDFYPGGDYINYNEKFKGKATLTADTSSSTAYMQLSSLTSEDSAIYYCTSRNFAYWGQGTPVTVSS
VL: DTTVTQSQRFMSTSVGDRVSVTCKASQNVGTNVAWYQQKPGQSPKPLIYSASYRYSGVPDRFTGSGSGTDFTLTINNVQSEDLAEYFCQQYNNSPLTFGGGTKLEIK
notes: also called AH4509
On to B3, for which the binding result in test [1] and in test [5] was “binds” each time.

B4: AH04507 (human IgG1 reformatted) (antibody, V domains shown)
VH: QVQLQQSGAELVRPGTSVKMSCKAAGYTFTNYWIGWVKQRPGHGLEWIGDIHPGGGYIDYNEKFTGKATLTADTSSSTAYMQLSSLTSEDSAIYYCVSRNFAKWGQGTLVTVSA
VL: DTTVTQSQKFMSTSVGDRVSVTCKASQNVGTNVAWYQQKPGQSPKALIYSASYRYSGVPDRFTGSGSGTDFTLTISNVQSEDLAEYFCQQYNSYPYTFGGGTKLEIK
With B4, the binding entry in test [1] and in test [5] was “binds” throughout.

B5: AH04522 (human IgG1 reformatted) (antibody, V domains shown)
VH: QIQLQQSGAELVRPGTSVKMSCKAAGYTFTNYWIGWVKQRPGHGLEWIGDIHPGGGYTNYNEKFKGKATLTADTSSSTAYMQLSSLTSEDSAIYYCTSRNFAYWGQGTLVTVSA
VL: DTTVTQSQKFMSTSVGDRVSVTCKAGQNVGTNVAWYQQKPGQSPKALIYSASYRYSGVPDRFTGSGSGTDFTLTISNVQSEDLAEYFCQQYNSYPYTFGGGTKLEIK
As for B5, the binding entry in test [1] and in test [5] was “binds” throughout.

B6: AH04511 (human IgG1 reformatted) (antibody, V domains shown)
VH: QIQLQQSGAELVRPGTSVKMSCKAAGYTFSNYWIGWVKQRPGHGLEWIGDIHPGGGYINYNEKFTGKATLTADTSSSTAYMQLSSLTSEDSAIYYCVSRNFANWGQGTLVTVSA
VL: DIVMSQSQKFMSTSVGDRVSVTCKASQNVGTNVAWYQQKPGQSPKALIYSASYRYSGVPDRFTGSGSGTDFTLTISNVQSEDLAEYFCQQYNSYPYTFGGGTKLEIK
notes: also called AH4511
Take B6: the binding entry in test [1] and in test [5] was “binds” in each case.

B7: AH04502 (human IgG1 reformatted) (antibody, V domains shown)
VH: QIQLQQSGAELVRPGTSVKMSCKAAGYTFTNYWIGWVKQRPGHGLEWIGDIHPGGGYTNYNEKFKGKATLTADTSSSTADMQLSSLTSEDSAIYYCTSRNFAYWGQGTLVTVSA
VL: DIVMTQSQKFMSTSVGDRVSVTCKASQNVGINVAWYQQKPGQSPKALIYSASYRYSGVPDRFTGSGSGTDFTLTISNVQSEDLAEYFCQQYNSYPYTFGGGTKLEIK
notes: also called AH4502
On to B7, for which the binding entry in test [1] and in test [5] was “binds” each time.

B8: AH04518 (human IgG1 reformatted) (antibody, V domains shown)
VH: QVQLQQSGAELVRPGTSVKMSCKAAGYTFTNYWIGWVKQRPGHDLEWIGDIHPGGDYSNYNEKFKGKATLTADTSSSTAYMNLSSLTSEDSAIYYCTSRNFAYWGQGTLVTVSA
VL: DILLTQSQKFMSTSVGDRVSVTCKASQNVGTNVAWYQQKPGQSPKALIYSASYRYSGVPDRFTGSGSGTDFTLTISNVQSEDLAEYFCQQYNSYPYTFGGGTKLEIK
notes: also called AH4518
For B8, the binding result in test [1] and in test [5] was “binds” each time.

B9: AH04505 (human IgG1 reformatted) (antibody, V domains shown)
VH: DVQLQQSGAELVRPGTSVKMSCKAAGYTFTNYWIGWVKQRPGHGLEWIGDIHPGGGYTNYNEKFKGKATLTADTSSSTAYMQLSSLTSEGSAIYYCTSRNFAYWGQGTLVTVSA
VL: DTTVTQSQKFMSTSVGDRVSVTCKASQNVGTNVAWYQQKPGQSPKALIYSASYRYSGVPDRFTGSGSGTDFTLTISNVQSEDLAEYFCQQYNSYPYTFGGGTKLEMK
notes: also called AH4505
B9: the binding entry in test [1] and in test [5] was “binds” in each case.

B10: AH04501 (human IgG1 reformatted) (antibody, V domains shown)
VH: QVQLQQPGAELVRPGTSVKMSCKAAGYTFTNYWIGWVKQRPGHGLEWIGDIHPGGDYSNYNEKFKGKATLTADTSSSTAYMNLSSLTSEDSAIYYCTSRNFAYWGQGTLVTVSA
VL: DVVMTQTQKFTSTSVGDRVSVTCKASQNVGTNVAWYQQKPGQSPKALIYSASYRYSGVPDRFTGSGSGTDFTLTISNVQSEDLAEYFCQQYNSYPYTFGGGTKLEIK
notes: also called AH4501
Regarding B10, the binding entry in test [1] and in test [5] was “binds” each time.

B11: AH04503 (human IgG1 reformatted) (antibody, V domains shown)
VH: QVQLQQPGAELVRPGTSVKMSCKAAGYTFSNYWIGWVKQRPGHGLEWIGDIHPGGGYINYNEKFTGKATLTADTSSSTAYMQLSSLTSEDSAIYYCVSRNFANWGQGTLVTVSA
VL: DIQMTQSQKFMSTSVGDRVSVTCKASQNVGTNVAWYQQKPGQSPKALIYSASYRYSGVPDRFTGSGSGTDFTLTISNVQSEDLAEYFCQQYNSYPWTFGGGTKLEIK
notes: also called AH4503
With B11, the binding result in test [1] and in test [5] was “binds” in each case.

B12: AH04523 (human IgG1 reformatted) (antibody, V domains shown)
VH: QIQLQQSGAELVRPGTSVKMSCKAAGYTFTNYWIGWVKQRPGHGLEWIGDIHPGGSYTNYNENFKGKATFTADTSSSTTYMQLSSLTSEDSAIYFCTSRNFAKWGQGTPVTVSS
VL: DIVLTQSQKFMSTSVGDRVSVTCKASQNVGTNVAWYQQKPGQSPKALIYSASYRYSGVPDRFTGSGSGTDFTLTISNVQSEDLAEYFCQQYNSYPYTFGGGTKLEIK
notes: also called AH4523
Consider B12, for which the binding entry in test [1] and in test [5] was “binds” each time.

B13: AH04525 (human IgG1 reformatted) (antibody, V domains shown)
VH: QVQLQQSGAELVRPGTSVKMSCKAAGYTFTNYWIGWIKQRPGHGLEWIGDIHPGGDYTNYNEKFKGKATLTADTFSSTAYMQLSSLTSEDSAIYYCTGRNFAYWGQGTLVTVSS
VL: DNVLTQSQKFMSTSVGDRVSVTCKASQNVGTNVAWYQQKPGQSPKALIYSASYRYSGVPDRFTGSGSGTDFTLTISNVQSEDLAEYFCQQYNSYPYTFGGGTKLEMK
notes: also called AH4525
For B13, the binding entry in test [1] and in test [5] was “binds” each time.

B14: AH05257 (human IgG1 reformatted) (antibody, V domains shown)
VH: QVQLQQSGAELVRPGVSLKISCKGSGYTFTDYAMHWVRQSHAKSLEWIGVISTYSGDAIYNQKFKGKATMTVDKSSSTAYLELARLTSEDSAIYYCARGVTFDYWGQGTTLTVSA
VL: DIVMTQSTSSLSASLGDRVTISCRASQDISNYLSWYQQKPDGTIKLLIYYTSRLHSGVSSRFSGSGSGTDYSLTISNLEQEDFATYFCQQGHTLPPTFGGGTKLEIK
B14: the binding result in test [1], in test [2], in test [3] and in test [4] was “binds” each time.

B15: AH05271 (human IgG1 reformatted) (antibody, V domains shown)
VH: QVQLQQSGAELVRPGVSVKISCKGSGYTFTDYAMHWVKQSHAKSLEWIGVISTYSGDVSYNQKFKGKATMTVDKSSSTAYMELARLTSEDSATYYCARGVTFDSWGQGTTLTVSS
VL: DIQMTQTPASLAASVGETVTITCRASENIYFSLAWYQQKQGKSPQLLIYNANTLEDGVPSRFSGSGSGTQFSMKINNMQPEDTATYFCKQAYDVPWTFGGGTKLEIK
For the molecule B15, the binding entry in test [1], in test [2], in test [3] and in test [4] was “binds” in each case.

B16: AH05258 (human IgG1 reformatted) (antibody, V domains shown)
VH: QIQLQQSGAELVRPGVSVKISCKGSGYTFTDYAMHWVKQSHAKSLEWIGVISTYSGDVSYNQKFKGKATMTVDKSSSTAYMELARLTSEDSAIYYCARGVTFDSWGQGTTLTVSS
VL: DIVMTQSHKFMSTSVGDRVSITCKASQDVSTAVAWYQQKPGQSPKLLIYSASYRYTGVPDRFTGSGSGTDFTFTISSVQAEDLAVYYCQQHYSTPFTFGSGTKLEIK
For the molecule B16, the binding entry in test [1], in test [2], in test [3] and in test [4] was “binds” each time.

B17: AH05214 (human IgG1 reformatted) (antibody, V domains shown)
VH: QIQLQQPGAELVKPGASVKLPCKASGYTFTSYWMHWVKQRPGQGLEWIGEINPSNGRTNYNEKFKSKATLTVDKSSSTAYMQLSSLTSEDSAVYYCARQLAAYWGQGTTVTVSS
VL: DILLTQSPALMAASPGEKVTITCSVSSSISSSNLHWYQQKSETSPKPWIYGTSNLASGVPVRFSGSGSGTSYSLTISSMEAEDAATYYCQQWSSYPLTFGGGTKLEIK
Consider B17, for which the binding result in test [2], in test [3] and in test [4] was “binds” in each case.
